# In patent US20200390689A1, “CERDULATINIB-CONTAINING TOPICAL SKIN PHARMACEUTICAL COMPOSITIONS AND USES THEREOF” (Dermavant Sciences GmbH, priority 2018, published 2020):
# Target: T1, JAK3 (Homo sapiens, UniProt P52333)
# T1 sequence (P52333 1-1124): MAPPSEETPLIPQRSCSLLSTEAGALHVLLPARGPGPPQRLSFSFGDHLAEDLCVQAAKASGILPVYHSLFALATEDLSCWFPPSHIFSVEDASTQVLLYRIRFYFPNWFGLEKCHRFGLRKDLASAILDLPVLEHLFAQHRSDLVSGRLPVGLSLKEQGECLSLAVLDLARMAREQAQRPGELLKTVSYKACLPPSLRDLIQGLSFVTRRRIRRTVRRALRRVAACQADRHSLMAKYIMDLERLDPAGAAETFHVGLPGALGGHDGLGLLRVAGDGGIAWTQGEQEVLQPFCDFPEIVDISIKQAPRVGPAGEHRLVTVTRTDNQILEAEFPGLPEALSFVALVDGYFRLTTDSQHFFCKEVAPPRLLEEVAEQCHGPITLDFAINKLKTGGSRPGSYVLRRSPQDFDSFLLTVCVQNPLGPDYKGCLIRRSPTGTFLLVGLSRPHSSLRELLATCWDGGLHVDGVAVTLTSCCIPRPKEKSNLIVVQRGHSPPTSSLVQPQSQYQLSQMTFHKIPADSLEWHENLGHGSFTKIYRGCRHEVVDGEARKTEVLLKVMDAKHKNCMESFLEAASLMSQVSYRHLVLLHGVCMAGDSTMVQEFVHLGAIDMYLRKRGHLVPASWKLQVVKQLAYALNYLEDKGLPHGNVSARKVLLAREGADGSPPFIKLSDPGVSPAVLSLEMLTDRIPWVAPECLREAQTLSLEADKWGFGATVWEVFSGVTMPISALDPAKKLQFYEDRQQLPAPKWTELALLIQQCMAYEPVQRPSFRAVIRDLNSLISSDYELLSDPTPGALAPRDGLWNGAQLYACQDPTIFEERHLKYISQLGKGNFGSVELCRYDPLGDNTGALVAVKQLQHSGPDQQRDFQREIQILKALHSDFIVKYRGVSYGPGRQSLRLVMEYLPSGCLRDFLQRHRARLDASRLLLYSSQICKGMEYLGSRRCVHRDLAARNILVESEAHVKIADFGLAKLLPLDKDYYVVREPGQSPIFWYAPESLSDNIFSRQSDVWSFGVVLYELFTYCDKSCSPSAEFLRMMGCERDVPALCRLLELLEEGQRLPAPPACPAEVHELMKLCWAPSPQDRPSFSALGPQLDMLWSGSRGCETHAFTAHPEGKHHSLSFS
# Assay: DiscoveRx cellular platform, JAK3
compound,measurement,value
"CCS(=O)(=O)N1CCN(c2ccc(Nc3ncc(C(N)=O)c(NC4CC4)n3)cc2)CC1 [DMVT-502, Cerdulatinib]",IC50,5.14 µM
